According to the supplement of paper PMC12823440, “Inhibitors supercharge kinase turnover through native proteolytic circuits” (Nature, 2025):
Where a name gives a salt, the structure may show the parent alone. The list shows a part of the results. The calls rarely recur for the same compound in another form.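 In K562 cells expressing nanoluciferase-fused kinases, luminescence was recorded at 4 h intervals between 2 and 18 h, normalized as percent of control with DMSO at 100% and a positive control at 0%. A significant (2 sigma) signal drop marks a time point as decreased. The authors' rule for a hit is not shown and takes in more than the number of time points.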

The chains behind the UniProt entries cited, without tags or fusion partners. Where a name states a change or a piece, a line headed by the entry shows the natural chain unless it says otherwise.
UniProt Q06187: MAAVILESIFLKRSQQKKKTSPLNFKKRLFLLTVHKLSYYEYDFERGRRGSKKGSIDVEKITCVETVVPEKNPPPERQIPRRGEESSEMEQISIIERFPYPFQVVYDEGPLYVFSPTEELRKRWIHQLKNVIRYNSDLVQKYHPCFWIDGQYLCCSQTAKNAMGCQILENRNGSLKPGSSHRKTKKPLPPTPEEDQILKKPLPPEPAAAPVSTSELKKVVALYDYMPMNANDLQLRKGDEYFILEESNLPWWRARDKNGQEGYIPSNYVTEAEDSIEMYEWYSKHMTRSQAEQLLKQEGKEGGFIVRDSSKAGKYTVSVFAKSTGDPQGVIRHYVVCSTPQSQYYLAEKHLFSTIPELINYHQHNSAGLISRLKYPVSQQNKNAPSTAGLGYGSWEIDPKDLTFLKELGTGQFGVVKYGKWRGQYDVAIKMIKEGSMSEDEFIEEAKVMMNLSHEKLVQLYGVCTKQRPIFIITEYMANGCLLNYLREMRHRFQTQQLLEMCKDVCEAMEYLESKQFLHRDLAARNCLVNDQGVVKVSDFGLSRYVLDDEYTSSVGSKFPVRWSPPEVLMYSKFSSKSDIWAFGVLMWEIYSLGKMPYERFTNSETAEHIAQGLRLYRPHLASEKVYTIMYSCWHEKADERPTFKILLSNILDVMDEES

Molecular target: BTK (UniProt Q06187)
Test: number of time points (of 5) at which kinase-Nluc abundance scored as decreased, DMSO-normalised (count); higher = more persistent destabilization
Settings: K562; 2-18 h

Row | SMILES | number of time points
1 | CC#CC(=O)N1CC[C@@H](n2c(=O)n(-c3ccc(Oc4ccccc4)cc3)c3c(N)ncnc32)C1 [Tirabrutinib (hydrochloride)] (10 µM) | 0
2 | Cc1ccc(C(=O)Nc2ccc(Oc3cc4cnn(C)c4cc3-c3cn[nH]c3)c(F)c2)c(=O)n1-c1ccc(F)cc1 [Merestinib] (2.5 µM) | 0
3 | Cc1cc(Nc2ncnc3ccc(NC4=NC(C)(C)CO4)cc23)ccc1Oc1ccn2ncnc2c1 [Tucatinib (hemiethanolate)] (2.5 µM) | 0
4 | C[C@@]1(c2ncncc2F)NC(=O)c2cc(-c3cn[nH]c3)ccc21 (10 µM) | 0
5 | COc1cc(Nc2ncc(F)c(Nc3ccc4c(n3)NC(=O)C(C)(C)O4)n2)cc(OC)c1OC (10 µM) | 0
6 | Cc1cc2ncc(-c3ccc(O)c(O)c3)nc2cc1C [Tyrphostin AG1433] (10 µM) | 0
7 | C=CC(=O)Nc1cccc(Nc2nc(Nc3ccc(N4CCN(C(C)=O)CC4)cc3OC)ncc2C(F)(F)F)c1 [Rociletinib hydrobromide] (10 µM) | 0
8 | Cc1cc(Nc2ncnc3ccc(NC4=NC(C)(C)CO4)cc23)ccc1Oc1ccn2ncnc2c1 [Tucatinib] (2.5 µM) | 0
9 | CCc1cc2c(cc1N1CCC(N3CCOCC3)CC1)C(C)(C)c1[nH]c3cc(C#N)ccc3c1C2=O [Alectinib (Hydrochloride)] (2 µM) | 0
10 | Cn1nccc1Nc1nccc(-c2ccn([C@H](CO)c3ccc(Cl)c(F)c3)c(=O)c2)n1 [Ravoxertinib hydrochloride] (10 µM) | 0
11 | COc1cc2c(N3CCN(C(=O)Nc4ccc(OC(C)C)cc4)CC3)ncnc2cc1OCCCN1CCCCC1 [Tandutinib] (10 µM) | 0
12 | CC#CC(=O)N1CC[C@@H](n2c(=O)n(-c3ccc(Oc4ccccc4)cc3)c3c(N)ncnc32)C1 [Tirabrutinib] (10 µM) | 0
13 | C=CC(=O)Nc1cccc(Nc2nc(Nc3ccc(N4CCN(C(C)=O)CC4)cc3OC)ncc2C(F)(F)F)c1 [Rociletinib] (10 µM) | 0
14 | COc1cc(Nc2ncc(F)c(Nc3ccc4c(n3)N(COP(=O)(O)O)C(=O)C(C)(C)O4)n2)cc(OC)c1OC [Fostamatinib Disodium] (10 µM) | 0
15 | COc1cc2c(N3CCN(C(=O)Nc4ccc(OC(C)C)cc4)CC3)ncnc2cc1OCCCN1CCCCC1 [Tandutinib (hydrochloride)] (10 µM) | 0
16 | COc1cc(Nc2ncc(F)c(Nc3ccc4c(n3)N(COP(=O)(O)O)C(=O)C(C)(C)O4)n2)cc(OC)c1OC [Fostamatinib (disodium hexahydrate)] (10 µM) | 0
17 | COc1cc2nccc(Oc3ccc(NC(=O)NC4CC4)c(Cl)c3)c2cc1C(N)=O [Lenvatinib (mesylate)] (10 µM) | 0
18 | Oc1ccc(Nc2nc(-c3ccc(Cl)cc3)cs2)cc1 (10 µM) | 0
19 | NC(=O)c1nc(Nc2ccccc2)sc1NC(=O)C1CCCCC1 (10 µM) | 0

Pulled one by one from the entries so far:
Row | SMILES | number of time points
13 | C=CC(=O)Nc1cccc(Nc2nc(Nc3ccc(N4CCN(C(C)=O)CC4)cc3OC)ncc2C(F)(F)F)c1 [Rociletinib] (10 µM) | 0
7 | C=CC(=O)Nc1cccc(Nc2nc(Nc3ccc(N4CCN(C(C)=O)CC4)cc3OC)ncc2C(F)(F)F)c1 [Rociletinib hydrobromide] (10 µM) | 0
5 | COc1cc(Nc2ncc(F)c(Nc3ccc4c(n3)NC(=O)C(C)(C)O4)n2)cc(OC)c1OC (10 µM) | 0

Additional records.

Row | SMILES | number of time points
20 | CC1=C(C(=O)O)N2C(=O)[C@@H](NC(=O)[C@H](N)C3=CCC=CC3)[C@H]2SC1 [Cephradine] (10 µM) | 0
21 | Cc1ccc(C(=O)Nc2ccc(Oc3cc4cnn(C)c4cc3-c3cn[nH]c3)c(F)c2)c(=O)n1-c1ccc(F)cc1 [Merestinib dihydrochloride] (2.5 µM) | 0
22 | Cc1ccc2nc(NCCN)c3ncc(C)n3c2c1 (2.5 µM) | 0
23 | CC(=O)NC1CC(n2cnc(NC(=O)Cc3ccc4ccccc4c3)c2)C1 (configuration not stated) (10 µM) | 0
24 | COc1cc2nccc(Oc3ccc(NC(=O)NC4CC4)c(Cl)c3)c2cc1C(N)=O [Lenvatinib] (10 µM) | 0
25 | Cn1cnc2c(F)c(Nc3ccc(Br)cc3Cl)c(C(=O)NOCCO)cc21 [Selumetinib (sulfate)] (10 µM) | 0
26 | CCN1CCN(Cc2ccc(Nc3ncc(F)c(-c4cc(F)c5nc(C)n(C(C)C)c5c4)n3)nc2)CC1 [Abemaciclib] (2 µM) | 0
27 | Cn1nccc1Nc1nccc(-c2ccn([C@H](CO)c3ccc(Cl)c(F)c3)c(=O)c2)n1 [Ravoxertinib] (10 µM) | 0
28 | COc1cc(Nc2ncc(F)c(Nc3ccc4c(n3)NC(=O)C(C)(C)O4)n2)cc(OC)c1OC [R406 (free base)] (10 µM) | 0
29 | S=C(SSC(=S)N1CCOCC1)N1CCOCC1 (10 µM) | 0
30 | CC1CCc2c(cc(Br)c(F)c2Br)N1C=O (configuration not stated) (10 µM) | 0
31 | Cc1[nH]c(/C=C2\C(=O)Nc3ccccc32)c(C)c1CCC(=O)O [(Z)-Orantinib] (10 µM) | 0
32 | CCN1CCN(Cc2ccc(Nc3ncc(F)c(-c4cc(F)c5nc(C)n(C(C)C)c5c4)n3)nc2)CC1 [Abemaciclib (methanesulfonate)] (10 µM) | 0
33 | Cn1cnc2c(F)c(Nc3ccc(Br)cc3Cl)c(C(=O)NOCCO)cc21 [Selumetinib] (10 µM) | 0
34 | CCc1cc2c(cc1N1CCC(N3CCOCC3)CC1)C(C)(C)c1[nH]c3cc(C#N)ccc3c1C2=O [Alectinib] (10 µM) | 0
35 | C=C(CC[C@@H](C(=O)O)[C@H]1[C@H](O)C[C@@]2(C)C3=C(CC[C@]12C)[C@@]1(C)CC[C@H](OC(C)=O)C(C)(C)[C@@H]1CC3)C(C)C [Pachymic acid] (10 µM) | 0
36 | Cc1[nH]c(/C=C2\C(=O)Nc3ccccc32)c(C)c1CCC(=O)O [Orantinib] (10 µM) | 0
37 | C=CC(=O)Nc1ccc(CN2C(=O)N(c3cc(OC)cc(OC)c3)Cc3cnc(Nc4ccc(N5CCN(C)CC5)cc4)nc32)cc1 (2.5 µM) | 0
